Consider one compound from ChEMBL document CHEMBL5537214, “Amine-containing donepezil analogues as potent acetylcholinesterase inhibitors with increased polarity” (RSC Med Chem, 2024).

Data set [1] can be described thus: in vitro. The settings on record: PAMPA.
Data set [2] can be described thus: physchem. To be noted: octanol/water.

Each structure is given as a SMILES string.

For `COc1cc2c(cc1OC)C(=O)C(CC1CCN(Cc3ccccc3)CC1)C2` (configuration not stated) [DONEPEZIL], in data set [1], the apparent permeability coefficient (Papp) (in general, a coefficient for how fast a substance crosses the barrier) at 8 h turned out to be 11.4 ×10⁻⁶ cm/s. The logD (as a rule, the decadic logarithm of the distribution of all forms, ionised or not, between an organic phase and buffer at a given pH) in data set [2] is 1.6.
